Here are results for two compounds from the NIST ThermoML archive (doi:10.1016/j.fluid.2008.01.024).

Numbers after ± are expanded uncertainties.

Data set [1] can be described thus: relative permittivity at zero frequency (dimensionless); xn = mol fraction of the nth substance listed. The settings on record: 303.15 K; 101 kPa; Liquid; capacitive measurement method; x2 = 0.
A short description of data set [2]: relative permittivity at zero frequency (dimensionless). The settings on record: 303.15 K; 101 kPa; Liquid; capacitive measurement method.

With `CC(=O)N(C)C` [N,N-dimethylethanamide] + OCC(O)CO, the “relative permittivity at zero frequency” value in data set [1] is on record as 37.72 ± 0.23.

`CC(=O)N(C)C` [N,N-dimethylethanamide]: the “relative permittivity at zero frequency” value in data set [2] is given as 37.72 ± 0.23.
